According to patent publication US20250025383A1, “EMOLLIENT COMPOSITION IN EMULSION FORM” (PIERRE FABRE MEDICAMENT, priority 2018, published 2025):

Assay: Evaluation of the compatibility of the preservatives in view of other aspects (odour, aspect, potential irritant or allergenic)

Row | Substance | Comments/other aspects (preservative alone at 5% in emulsion) | Comments/other aspects (preservative alone at 0.5% in emulsion)
1 | Copper digluconate | Unstable cream | –
2 | Zinc undecylenate | – | Thick cream,
